Results as given in the supplement of paper PMC4604168 (melanoma cell lines).
Some of the results follow. Many values rest on one well or one pass, so single values are uncertain.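 Cells were imaged in 1,536-well plates, and nuclei stained with an antibody against cleaved PARP were counted against all DNA-stained nuclei to give the apoptosis fraction. Screening doses were chosen to leave most cells alive, and resting and induced cleaved-PARP levels differ strongly between cell lines.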

Each compound was assayed on MZ2-MEL (assay: cleaved PARP positive nuclei fraction relative to DMSO control; melanoma cells; higher = more apoptosis). Details: library dose: low library concentration; 72 h.

| SMILES | cleaved PARP positive nuclei fraction [%] |
| --- | --- |
| Oc1cc(-c2nc(-c3ccccc3)[nH]c2-c2ccncc2)ccc1Cl + C/C(O)=C(\C#N)C(=O)Nc1cc(Br)ccc1Br [LFM-A13] (first compound 0.2 µM, partner dose 2 µM) | 89.4 |
| C[As](C)SC[C@H](NC(=O)CC[C@H](N)C(=O)O)C(=O)NCC(=O)O [Darinaparsin] + COc1ccc2c(c1)CCC1C2CCC2(C)C(NCCCCCCN3C(=O)C=CC3=O)CCC12 [U73122] (first compound 0.4 µM, partner dose 0.4 µM) | 106 |
| CCc1ccc(CCOc2ccc(CC3SC(=O)NC3=O)cc2)nc1 (stereo unspecified) [pioglitazone] + O=C(Oc1ccc([N+](=O)[O-])cc1)N1CCC(C(O)(c2ccc3c(c2)OCO3)c2ccc3c(c2)OCO3)CC1 [JZL184] (first compound 2 µM, partner dose 1 µM) | 73.4 |
| CC1(C)NC(=O)N(c2ccc([N+](=O)[O-])c(C(F)(F)F)c2)C1=O [nilutamide] + C/C(O)=C(\C#N)C(=O)Nc1cc(Br)ccc1Br [LFM-A13] (first compound 1 µM, partner dose 2 µM) | 68.2 |
| C[C@]12O[C@H](C[C@]1(O)CO)n1c3ccccc3c3c4c(c5c6ccccc6n2c5c31)CNC4=O [Lestaurtinib] + O=C(Oc1ccc([N+](=O)[O-])cc1)N1CCC(C(O)(c2ccc3c(c2)OCO3)c2ccc3c(c2)OCO3)CC1 [JZL184] (first compound 0.004 µM, partner dose 1 µM) | 223 |
| Oc1cc(-c2nc(-c3ccccc3)[nH]c2-c2ccncc2)ccc1Cl + O=C(Oc1ccc([N+](=O)[O-])cc1)N1CCC(C(O)(c2ccc3c(c2)OCO3)c2ccc3c(c2)OCO3)CC1 [JZL184] (first compound 0.2 µM, partner dose 1 µM) | 126 |
| Cc1cc(SCc2sc(-c3ccc(C(F)(F)F)c(F)c3)nc2C)ccc1OCC(=O)O + c1cc(-c2cnn3cc(-c4ccc(OCCN5CCCCC5)cc4)cnc23)ccn1 [Dorsomorphin] (first compound 2 µM, partner dose 0.4 µM) | 81.8 |
| C[C@]12O[C@H](C[C@]1(O)CO)n1c3ccccc3c3c4c(c5c6ccccc6n2c5c31)CNC4=O [Lestaurtinib] + C[C@@H]1CCN(C(=O)CC#N)C[C@@H]1N(C)c1ncnc2[nH]ccc12 [CP690550] (first compound 0.004 µM, partner dose 1 µM) | 107 |
| O=S(=O)(c1ccccc1)N(CC(F)(F)F)c1ccc(C(O)(C(F)(F)F)C(F)(F)F)cc1 + O=C(Oc1ccc([N+](=O)[O-])cc1)N1CCC(C(O)(c2ccc3c(c2)OCO3)c2ccc3c(c2)OCO3)CC1 [JZL184] (first compound 1.4 µM, partner dose 1 µM) | 72 |
| CCN(CC)CCCCNc1ncc2cc(-c3cc(OC)cc(OC)c3)c(NC(=O)NC(C)(C)C)nc2n1 + C/C(O)=C(\C#N)C(=O)Nc1cc(Br)ccc1Br [LFM-A13] (first compound 0.1 µM, partner dose 2 µM) | 135 |
| CC(C)(C)c1cnc(CSc2cnc(NC(=O)C3CCNCC3)s2)o1 + O=C(Oc1ccc([N+](=O)[O-])cc1)N1CCC(C(O)(c2ccc3c(c2)OCO3)c2ccc3c(c2)OCO3)CC1 [JZL184] (first compound 0.01 µM, partner dose 1 µM) | 249 |
| C[As](C)SC[C@H](NC(=O)CC[C@H](N)C(=O)O)C(=O)NCC(=O)O [Darinaparsin] + O=C(O)C(=O)Nc1sc2c(c1C(=O)O)CCNC2 [TCS401] (first compound 0.4 µM, partner dose 1.66667 µM) | 202 |
| CCN(CC)CCCCNc1ncc2cc(-c3cc(OC)cc(OC)c3)c(NC(=O)NC(C)(C)C)nc2n1 + O=C(Oc1ccc([N+](=O)[O-])cc1)N1CCC(C(O)(c2ccc3c(c2)OCO3)c2ccc3c(c2)OCO3)CC1 [JZL184] (first compound 0.1 µM, partner dose 1 µM) | 128 |
| C[As](C)SC[C@H](NC(=O)CC[C@H](N)C(=O)O)C(=O)NCC(=O)O [Darinaparsin] + Cc1cc(SCc2sc(-c3ccc(C(F)(F)F)c(F)c3)nc2C)ccc1OCC(=O)O [GW0742] (first compound 0.4 µM, partner dose 2 µM) | 224 |
| CCc1ccc(CCOc2ccc(CC3SC(=O)NC3=O)cc2)nc1 (stereo unspecified) [pioglitazone] + C/C(O)=C(\C#N)C(=O)Nc1cc(Br)ccc1Br [LFM-A13] (first compound 2 µM, partner dose 2 µM) | 70 |
| CO[C@@H]1[C@H](N(C)C(=O)c2ccccc2)C[C@H]2O[C@]1(C)n1c3ccccc3c3c4c(c5c6ccccc6n2c5c31)C(=O)NC4 [Midostaurin] + C/C(O)=C(\C#N)C(=O)Nc1cc(Br)ccc1Br [LFM-A13] (first compound 0.08 µM, partner dose 2 µM) | 97.2 |

| SMILES | cleaved PARP positive nuclei fraction [%] |
| --- | --- |
| c1cc(-c2cnn3cc(-c4ccc(OCCN5CCCCC5)cc4)cnc23)ccn1 [Dorsomorphin] + O=C(Oc1ccc([N+](=O)[O-])cc1)N1CCC(C(O)(c2ccc3c(c2)OCO3)c2ccc3c(c2)OCO3)CC1 [JZL184] (first compound 0.4 µM, partner dose 1 µM) | 147 |
| Cc1cc(SCc2sc(-c3ccc(C(F)(F)F)c(F)c3)nc2C)ccc1OCC(=O)O + Cn1cc(/C=C2\C(=O)Nc3cccnc32)c2ccccc21 [GW441756] (first compound 2 µM, partner dose 0.4 µM) | 41 |
| C[C@]12O[C@H](C[C@]1(O)CO)n1c3ccccc3c3c4c(c5c6ccccc6n2c5c31)CNC4=O [Lestaurtinib] + C/C(O)=C(\C#N)C(=O)Nc1cc(Br)ccc1Br [LFM-A13] (first compound 0.004 µM, partner dose 2 µM) | 67.7 |
| C[As](C)SC[C@H](NC(=O)CC[C@H](N)C(=O)O)C(=O)NCC(=O)O [Darinaparsin] + COc1cc2ncnc(Nc3ccc(Oc4ccccc4)cc3)c2cc1OC [SrcI1] (first compound 0.4 µM, partner dose 2 µM) | 86.1 |
| Cn1nnc2c(C(N)=O)ncn2c1=O [temozolomide] + O=C(Oc1ccc([N+](=O)[O-])cc1)N1CCC(C(O)(c2ccc3c(c2)OCO3)c2ccc3c(c2)OCO3)CC1 [JZL184] (first compound 2 µM, partner dose 1 µM) | 214 |
| C[C@]1(c2nc3c(C(N)=O)cccc3[nH]2)CCCN1 [Veliparib] + O=C(Oc1ccc([N+](=O)[O-])cc1)N1CCC(C(O)(c2ccc3c(c2)OCO3)c2ccc3c(c2)OCO3)CC1 [JZL184] (first compound 1.4 µM, partner dose 1 µM) | 220 |
| Nc1cccc2c1CN(C1CCC(=O)NC1=O)C2=O (stereo unspecified) [lenalidomide] + O=C(Oc1ccc([N+](=O)[O-])cc1)N1CCC(C(O)(c2ccc3c(c2)OCO3)c2ccc3c(c2)OCO3)CC1 [JZL184] (first compound 1 µM, partner dose 1 µM) | 98 |
| C[C@]12O[C@H](C[C@]1(O)CO)n1c3ccccc3c3c4c(c5c6ccccc6n2c5c31)CNC4=O [Lestaurtinib] + COc1ccc(COc2ccc(Cc3cnc(N)nc3N)cc2OC)cc1 [GW2580] (first compound 0.004 µM, partner dose 1 µM) | 83.5 |
| Cc1nc(Nc2ncc(C(=O)Nc3c(C)cccc3Cl)s2)cc(N2CCN(CCO)CC2)n1 [dasatanib] + C/C(O)=C(\C#N)C(=O)Nc1cc(Br)ccc1Br [LFM-A13] (first compound 0.004 µM, partner dose 2 µM) | 144 |
| Cc1cc(SCc2sc(-c3ccc(C(F)(F)F)c(F)c3)nc2C)ccc1OCC(=O)O + Cc1cc([N+](=O)[O-])ccc1NS(=O)(=O)c1cc(Cl)ccc1Cl [FH535] (first compound 2 µM, partner dose 1 µM) | 121 |
| O=S(=O)(c1ccccc1)N(CC(F)(F)F)c1ccc(C(O)(C(F)(F)F)C(F)(F)F)cc1 + C/C(O)=C(\C#N)C(=O)Nc1cc(Br)ccc1Br [LFM-A13] (first compound 1.4 µM, partner dose 2 µM) | 70.6 |
| O=C(Oc1ccc([N+](=O)[O-])cc1)N1CCC(C(O)(c2ccc3c(c2)OCO3)c2ccc3c(c2)OCO3)CC1 + CCCCCCCCCCCC1=C(O)C(=O)C=C(O)C1=O [Embelin] (first compound 1 µM, partner dose 1.2 µM) | 87.4 |
| Cn1cncc1[C@@](N)(c1ccc(Cl)cc1)c1ccc2c(c1)c(-c1cccc(Cl)c1)cc(=O)n2C [tipifarnib] + Cc1cc(SCc2sc(-c3ccc(C(F)(F)F)c(F)c3)nc2C)ccc1OCC(=O)O [GW0742] (first compound 0.01 µM, partner dose 2 µM) | 138 |
| O=C1NC(=O)/C(=C/c2ccc(-c3ccc(F)cc3O)o2)S1 + O=C(Oc1ccc([N+](=O)[O-])cc1)N1CCC(C(O)(c2ccc3c(c2)OCO3)c2ccc3c(c2)OCO3)CC1 [JZL184] (first compound 1 µM, partner dose 1 µM) | 73.9 |
| CN(C)S(=O)(=O)c1ccc2c(c1)/C(=C/c1cc3c([nH]1)CCCC3)C(=O)N2 + Cc1cc(SCc2sc(-c3ccc(C(F)(F)F)c(F)c3)nc2C)ccc1OCC(=O)O [GW0742] (first compound 0.4 µM, partner dose 2 µM) | 82 |

In a second layout: entries from further up
SMILES	cleaved PARP positive nuclei fraction [%]
Cc1cc(SCc2sc(-c3ccc(C(F)(F)F)c(F)c3)nc2C)ccc1OCC(=O)O + Cc1cc([N+](=O)[O-])ccc1NS(=O)(=O)c1cc(Cl)ccc1Cl [FH535] (first compound 2 µM, partner dose 1 µM)	121
O=C(Oc1ccc([N+](=O)[O-])cc1)N1CCC(C(O)(c2ccc3c(c2)OCO3)c2ccc3c(c2)OCO3)CC1 + CCCCCCCCCCCC1=C(O)C(=O)C=C(O)C1=O [Embelin] (first compound 1 µM, partner dose 1.2 µM)	87.4
